Laboratory results reported in publication PMC3841096.
Results are given in words; binding and its absence hold for the method and conditions named. Binding seen in cells or lysates may run through a third protein.

Amino acid sequences for entries named in this document (tags omitted).
UniProt Q6NZM9: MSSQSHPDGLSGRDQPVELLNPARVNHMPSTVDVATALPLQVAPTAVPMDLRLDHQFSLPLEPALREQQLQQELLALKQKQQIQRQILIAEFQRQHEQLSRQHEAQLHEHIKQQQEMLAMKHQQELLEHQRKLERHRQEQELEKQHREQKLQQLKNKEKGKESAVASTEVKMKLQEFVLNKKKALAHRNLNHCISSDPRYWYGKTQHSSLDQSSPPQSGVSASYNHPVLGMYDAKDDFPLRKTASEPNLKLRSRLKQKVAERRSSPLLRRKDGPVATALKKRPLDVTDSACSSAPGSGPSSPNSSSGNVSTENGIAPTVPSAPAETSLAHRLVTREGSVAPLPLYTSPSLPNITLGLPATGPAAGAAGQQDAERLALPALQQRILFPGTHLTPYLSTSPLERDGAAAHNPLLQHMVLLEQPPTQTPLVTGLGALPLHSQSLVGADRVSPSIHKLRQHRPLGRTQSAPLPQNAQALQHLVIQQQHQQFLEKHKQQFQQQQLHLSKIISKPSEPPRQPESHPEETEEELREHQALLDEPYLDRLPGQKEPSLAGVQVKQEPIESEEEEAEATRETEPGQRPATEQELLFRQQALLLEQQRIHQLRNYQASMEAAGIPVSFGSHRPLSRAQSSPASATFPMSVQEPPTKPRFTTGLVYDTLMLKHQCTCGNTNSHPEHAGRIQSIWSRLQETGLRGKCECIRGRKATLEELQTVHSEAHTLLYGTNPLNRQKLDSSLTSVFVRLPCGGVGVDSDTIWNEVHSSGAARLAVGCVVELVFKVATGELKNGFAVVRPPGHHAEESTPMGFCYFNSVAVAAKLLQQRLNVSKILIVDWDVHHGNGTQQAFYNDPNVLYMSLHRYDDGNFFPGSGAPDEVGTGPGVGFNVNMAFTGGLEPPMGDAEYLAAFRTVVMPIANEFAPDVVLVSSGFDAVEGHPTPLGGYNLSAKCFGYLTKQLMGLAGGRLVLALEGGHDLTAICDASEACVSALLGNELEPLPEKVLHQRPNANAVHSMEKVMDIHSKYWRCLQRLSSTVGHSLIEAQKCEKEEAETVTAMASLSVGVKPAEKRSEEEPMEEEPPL
UniProt Q9Z2V6: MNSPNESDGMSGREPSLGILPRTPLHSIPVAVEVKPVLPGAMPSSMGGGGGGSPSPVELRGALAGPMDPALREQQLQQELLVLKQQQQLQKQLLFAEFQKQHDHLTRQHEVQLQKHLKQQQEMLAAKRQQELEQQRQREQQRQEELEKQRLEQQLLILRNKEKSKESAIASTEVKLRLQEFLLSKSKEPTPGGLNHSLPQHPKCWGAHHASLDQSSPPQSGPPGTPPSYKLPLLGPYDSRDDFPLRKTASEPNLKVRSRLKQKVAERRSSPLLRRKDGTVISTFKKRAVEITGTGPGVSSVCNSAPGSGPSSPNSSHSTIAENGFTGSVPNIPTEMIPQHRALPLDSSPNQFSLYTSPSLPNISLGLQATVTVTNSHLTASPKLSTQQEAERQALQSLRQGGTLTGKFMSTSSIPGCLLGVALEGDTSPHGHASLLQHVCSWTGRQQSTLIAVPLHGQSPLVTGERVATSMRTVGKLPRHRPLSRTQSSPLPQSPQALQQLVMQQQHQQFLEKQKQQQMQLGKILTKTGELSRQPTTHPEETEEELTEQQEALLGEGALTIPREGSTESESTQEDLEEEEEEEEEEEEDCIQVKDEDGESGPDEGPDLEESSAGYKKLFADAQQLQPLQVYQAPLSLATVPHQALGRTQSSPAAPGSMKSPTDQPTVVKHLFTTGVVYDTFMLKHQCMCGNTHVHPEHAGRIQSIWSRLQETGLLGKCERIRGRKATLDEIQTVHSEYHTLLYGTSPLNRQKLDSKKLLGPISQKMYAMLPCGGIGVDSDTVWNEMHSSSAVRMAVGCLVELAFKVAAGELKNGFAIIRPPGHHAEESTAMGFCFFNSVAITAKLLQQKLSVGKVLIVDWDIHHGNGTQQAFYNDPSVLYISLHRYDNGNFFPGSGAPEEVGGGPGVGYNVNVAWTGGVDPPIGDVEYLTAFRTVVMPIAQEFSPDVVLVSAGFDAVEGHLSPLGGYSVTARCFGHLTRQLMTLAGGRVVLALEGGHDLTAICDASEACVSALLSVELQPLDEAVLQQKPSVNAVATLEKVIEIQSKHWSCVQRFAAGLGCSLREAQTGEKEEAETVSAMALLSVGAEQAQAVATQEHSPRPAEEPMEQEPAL
UniProt P42859: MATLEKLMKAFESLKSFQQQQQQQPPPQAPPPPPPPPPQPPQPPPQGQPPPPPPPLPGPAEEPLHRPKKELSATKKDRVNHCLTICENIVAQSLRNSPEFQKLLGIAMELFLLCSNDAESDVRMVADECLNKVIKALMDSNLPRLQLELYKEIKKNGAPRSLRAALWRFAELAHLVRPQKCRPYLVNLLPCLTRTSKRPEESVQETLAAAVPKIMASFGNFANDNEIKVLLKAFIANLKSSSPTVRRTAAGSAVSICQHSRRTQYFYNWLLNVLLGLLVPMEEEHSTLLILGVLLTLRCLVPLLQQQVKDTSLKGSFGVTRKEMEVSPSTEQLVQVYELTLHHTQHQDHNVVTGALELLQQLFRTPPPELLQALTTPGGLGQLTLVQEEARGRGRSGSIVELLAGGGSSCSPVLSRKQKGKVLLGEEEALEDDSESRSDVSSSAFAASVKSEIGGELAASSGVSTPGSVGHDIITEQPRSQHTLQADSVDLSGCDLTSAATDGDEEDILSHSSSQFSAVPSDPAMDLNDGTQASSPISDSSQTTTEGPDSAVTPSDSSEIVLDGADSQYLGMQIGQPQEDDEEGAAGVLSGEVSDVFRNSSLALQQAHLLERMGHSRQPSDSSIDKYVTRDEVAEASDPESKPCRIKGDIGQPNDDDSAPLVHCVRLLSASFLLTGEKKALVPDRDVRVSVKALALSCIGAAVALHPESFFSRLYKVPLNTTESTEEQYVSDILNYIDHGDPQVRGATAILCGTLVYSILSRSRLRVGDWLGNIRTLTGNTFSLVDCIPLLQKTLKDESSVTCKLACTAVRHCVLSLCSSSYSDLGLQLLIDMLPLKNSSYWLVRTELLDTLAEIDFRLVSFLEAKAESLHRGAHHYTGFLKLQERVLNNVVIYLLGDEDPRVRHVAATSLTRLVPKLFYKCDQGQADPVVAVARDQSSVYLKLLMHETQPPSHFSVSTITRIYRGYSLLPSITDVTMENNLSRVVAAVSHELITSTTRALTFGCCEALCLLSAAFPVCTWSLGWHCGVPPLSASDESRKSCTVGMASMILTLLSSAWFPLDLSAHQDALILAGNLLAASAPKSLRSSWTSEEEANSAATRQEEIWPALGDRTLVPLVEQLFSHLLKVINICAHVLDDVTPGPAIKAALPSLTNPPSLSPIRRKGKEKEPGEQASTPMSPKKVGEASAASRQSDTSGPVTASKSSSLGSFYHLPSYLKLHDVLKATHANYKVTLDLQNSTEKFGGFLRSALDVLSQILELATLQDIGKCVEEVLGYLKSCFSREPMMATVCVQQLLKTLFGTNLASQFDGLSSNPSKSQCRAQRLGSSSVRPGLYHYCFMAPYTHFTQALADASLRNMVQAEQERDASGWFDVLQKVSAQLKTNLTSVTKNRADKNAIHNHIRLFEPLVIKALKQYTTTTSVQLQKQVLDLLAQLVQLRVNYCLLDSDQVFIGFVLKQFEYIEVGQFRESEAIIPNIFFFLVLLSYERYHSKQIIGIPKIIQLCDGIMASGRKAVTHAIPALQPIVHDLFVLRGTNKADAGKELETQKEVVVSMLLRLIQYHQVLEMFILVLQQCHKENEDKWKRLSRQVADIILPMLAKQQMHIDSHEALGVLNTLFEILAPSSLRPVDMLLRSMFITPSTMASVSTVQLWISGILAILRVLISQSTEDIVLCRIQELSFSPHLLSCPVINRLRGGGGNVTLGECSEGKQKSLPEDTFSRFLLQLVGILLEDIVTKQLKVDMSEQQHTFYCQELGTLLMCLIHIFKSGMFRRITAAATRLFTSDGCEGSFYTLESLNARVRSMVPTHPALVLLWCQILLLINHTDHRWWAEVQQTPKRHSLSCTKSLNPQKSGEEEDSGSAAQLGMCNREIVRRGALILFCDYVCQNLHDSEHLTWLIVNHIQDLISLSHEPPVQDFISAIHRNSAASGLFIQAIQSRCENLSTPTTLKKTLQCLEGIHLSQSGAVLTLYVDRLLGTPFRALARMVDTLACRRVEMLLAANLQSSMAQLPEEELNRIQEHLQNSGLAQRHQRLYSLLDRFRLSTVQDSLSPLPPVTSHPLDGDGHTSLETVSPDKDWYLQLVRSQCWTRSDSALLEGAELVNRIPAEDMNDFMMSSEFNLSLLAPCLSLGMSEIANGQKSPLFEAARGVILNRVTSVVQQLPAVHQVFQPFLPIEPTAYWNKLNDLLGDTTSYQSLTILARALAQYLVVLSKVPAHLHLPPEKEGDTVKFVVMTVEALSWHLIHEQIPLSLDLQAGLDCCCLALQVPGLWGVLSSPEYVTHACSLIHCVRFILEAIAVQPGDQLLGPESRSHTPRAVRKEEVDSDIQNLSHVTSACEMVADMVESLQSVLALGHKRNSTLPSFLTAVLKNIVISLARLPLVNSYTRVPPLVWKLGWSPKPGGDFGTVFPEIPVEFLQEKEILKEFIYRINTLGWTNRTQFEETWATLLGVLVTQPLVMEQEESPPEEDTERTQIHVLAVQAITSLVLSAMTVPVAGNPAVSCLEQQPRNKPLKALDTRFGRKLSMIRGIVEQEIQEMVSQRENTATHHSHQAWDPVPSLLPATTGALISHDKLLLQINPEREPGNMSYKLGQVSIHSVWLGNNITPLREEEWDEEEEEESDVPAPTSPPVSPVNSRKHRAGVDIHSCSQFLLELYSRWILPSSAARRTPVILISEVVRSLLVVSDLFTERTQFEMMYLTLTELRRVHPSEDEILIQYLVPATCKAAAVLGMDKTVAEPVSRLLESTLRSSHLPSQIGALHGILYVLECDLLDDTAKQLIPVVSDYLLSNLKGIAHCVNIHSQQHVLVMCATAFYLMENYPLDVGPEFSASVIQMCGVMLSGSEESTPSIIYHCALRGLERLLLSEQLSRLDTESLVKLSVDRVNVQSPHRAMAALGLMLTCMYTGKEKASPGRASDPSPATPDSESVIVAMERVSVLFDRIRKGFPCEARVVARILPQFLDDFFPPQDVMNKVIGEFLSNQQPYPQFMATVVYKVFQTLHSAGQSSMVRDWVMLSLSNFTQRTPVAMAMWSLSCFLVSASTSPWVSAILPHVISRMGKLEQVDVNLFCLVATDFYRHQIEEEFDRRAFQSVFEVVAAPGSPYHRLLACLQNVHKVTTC

Legend:
[1] = target: HDAC4 (endogenous, mouse brain) (mouse (endogenous in mouse brain)) (UniProt Q6NZM9); test: co-IP; whole brain lysates of 8-wk-old mice in HEPES buffer, protein-G Dynabeads overnight at 4°C; immunoprecipitation with HDAC4 (DM-15 or H-92) or HDAC5 (ab56929) antibodies, HTT detected with MAB2166 or MW1
[2] = target: HDAC5 (endogenous, mouse brain) (mouse (endogenous in mouse brain)) (UniProt Q9Z2V6); test: as above

binding [1]: no binding
binding [2]: no binding
Substance: wild-type HTT (7Q), endogenous mouse huntingtin (from UniProt P42859 1-3119)
